Measured data: PubChem BioAssay AID1053208 (Peter MacCallum Cancer Centre, 2014)
In all, the deposit lists about 17,000 reagents; below is a part drawn at random. Over the whole deposit, 788 (4.7%) got an active call. 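Calls rest on z-score classes alone; an extra cut-off of viability at most 70% of control was not applied to them.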 Entries without a mark were called inactive. Further read-outs or replicates are left out here.

Test: 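Genes whose silencing cuts survival of bone tumour cells only with doxorubicin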 (primary screen)
System: mouse osteosarcoma cells, early-passage culture from an engineered mouse model of fibroblastic bone tumour
Reagents: siRNA pool against mouse genes, 40 nM
Timing: about 120 h (48 h before drug, then 72 h with drug)
Treatment: doxorubicin 100 nM for 72 h, roughly 30-40% inhibitory dose
Measurement: 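Luminescent ATP signal taken as viability with or without 100 nM doxorubicin for 72 h; mean of two wells set against non-targeting siRNA and turned into robust z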
Scale: viability z-score with doxorubicin: higher = more viable cells under doxorubicin; viability z-score without drug: higher = more viable cells with knock-down alone
Active means: 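a pool counts as active when its viability z-score with doxorubicin is -2 or below and its z-score without drug lies between -2 and 2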

| gene symbol | combined z-score class | viability z-score with doxorubicin | viability z-score without drug |
| --- | --- | --- | --- |
| Gtf3c4 (general transcription factor IIIC, polypeptide 4) | no change with or without drug | 1.12 | 0.17 |
| Rsad2 (radical S-adenosyl methionine domain containing 2) | no change with or without drug | -0.11 | -1.18 |
| Aarsd1 (alanyl-tRNA synthetase domain containing 1) | no change with or without drug | -0.9 | 0.84 |
| Gdf6 (growth differentiation factor 6) | no change with or without drug | -0.22 | 0 |
| Mib1 (MIB E3 ubiquitin protein ligase 1) | no change with or without drug | 0 | 0.51 |
| Or6b9 (olfactory receptor family 6 subfamily B member 9) | low cell count with doxorubicin only (active) | -2.02 | -1.01 |
| Med14 (mediator complex subunit 14) | low cell count with and without drug | -5.06 | -2.19 |
| Pmel (premelanosome protein) | no change with or without drug | -1.57 | -0.34 |
| Dpysl4 (dihydropyrimidinase-like 4) | no change with or without drug | -0.9 | 0.84 |
| Il16 (interleukin 16) | no change with or without drug | 1.8 | 0.84 |
| Slc6a7 | no change with or without drug | -0.22 | 0.51 |
| Pth2r (parathyroid hormone 2 receptor) | high cell count with doxorubicin only | 2.02 | 0 |
| Ca5b (carbonic anhydrase 5B) | no change with or without drug | -0.45 | -1.18 |
| Arvcf (armadillo repeat gene deleted in velocardiofacial syndrome) | high cell count with doxorubicin only | 3.93 | 1.85 |
| Cd59a (CD59a antigen) | no change with or without drug | -0.9 | -0.17 |
| Bpifb6 (BPI fold containing family B, member 6) | no change with or without drug | -0.45 | -1.69 |
| Sh3bp5l (SH3 binding domain protein 5 like) | no change with or without drug | 0.11 | 0.34 |
| Galntl5 | no change with or without drug | -0.56 | 0 |
| Ythdf3 (YTH N6-methyladenosine RNA binding protein 3) | no change with or without drug | 1.12 | 0.84 |
| Zpbp2 (zona pellucida binding protein 2) | no change with or without drug | 0.11 | 1.85 |

Records listed so far whose target name starts with A or a (2):
| gene symbol | combined z-score class | viability z-score with doxorubicin | viability z-score without drug |
| --- | --- | --- | --- |
| Aarsd1 (alanyl-tRNA synthetase domain containing 1) | no change with or without drug | -0.9 | 0.84 |
| Arvcf (armadillo repeat gene deleted in velocardiofacial syndrome) | high cell count with doxorubicin only | 3.93 | 1.85 |
